Laboratory results from patent US20020086844A1 (Harvard, published 2002).
These are yes or no findings as the source states them, for the method shown. In cells and extracts the contact can be indirect. Some entries that bind do so weakly or less than the wild type.

The chains behind the UniProt entries cited, without tags or fusion partners. Residues count along the entry.
UniProt P38646, residues 47-679: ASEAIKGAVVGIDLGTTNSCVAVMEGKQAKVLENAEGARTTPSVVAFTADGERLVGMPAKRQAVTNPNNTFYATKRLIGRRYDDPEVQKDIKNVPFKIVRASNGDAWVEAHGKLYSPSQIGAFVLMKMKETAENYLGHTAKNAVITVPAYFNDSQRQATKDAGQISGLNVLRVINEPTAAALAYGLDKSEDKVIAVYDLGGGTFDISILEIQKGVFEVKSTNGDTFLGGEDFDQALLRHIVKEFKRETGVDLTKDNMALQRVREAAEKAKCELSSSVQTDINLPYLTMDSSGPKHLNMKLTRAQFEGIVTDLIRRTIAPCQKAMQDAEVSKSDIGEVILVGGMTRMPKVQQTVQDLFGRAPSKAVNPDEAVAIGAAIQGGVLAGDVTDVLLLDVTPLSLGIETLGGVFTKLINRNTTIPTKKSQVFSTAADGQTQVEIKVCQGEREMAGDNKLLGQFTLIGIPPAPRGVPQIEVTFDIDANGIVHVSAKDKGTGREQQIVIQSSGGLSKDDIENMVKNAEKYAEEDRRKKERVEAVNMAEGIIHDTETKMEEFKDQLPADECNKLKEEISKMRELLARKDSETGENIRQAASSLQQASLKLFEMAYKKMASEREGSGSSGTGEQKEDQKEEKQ

Tests used:
[1] = target: mitochondrial Hsp70 homolog, mtHsp70 (GRP75) (human) (UniProt P38646); assay: co-immunoprecipitation, SDS/PAGE and Western blot (FIG. 2C)
[2] = target: mitochondrial Hsp70 homolog, mtHsp70 (GRP75) (human) (UniProt P38646); assay: heading of the FIG. 2 legend (co-immunoprecipitation)
[3] = target: mitochondrial Hsp70 homolog, mtHsp70 (GRP75) (human) (UniProt P38646); assay: co-immunoprecipitation and immunoblot of endogenous proteins, both directions

binding [1] | binding [2] | binding [3] | Binder
binds | binds | binds | hTid-1L (other, Endogenous protein from human cell lysates; also called long form of human Tid1; 43 kDa TID1 splice variant) VSLTGTKHNPFICTASFHTSAPLAKEDYYQILGVPRNASQKEIKKAYYQLAKKYHPDTNKDDPKAKEKFSQLAEAYEVLSDEVKRKQYDAYGSAGFDPGASGSQHSYWKGGPTVDPEELFRKIFGEFSSSSFGDFQTVFDQPQEYFMELTFNQAAKGVNKEFTVNIMDTCERCNGKGNEPGTKVQHCHYCGGSGMETINTGPFVMRSTCRRCGGRGSIIISPCVVCRGAGQAKQKKRVMIPVPAGVEDGQTVRMPVGKREIFITFRVQKSPVFRRDGADIHSDLFISIAQALLGGTARAQGLYETINVTIPPGTQTDQKIRMGGKGIPRINSYGYGDHYIHIKIRVPKRLTSRQQSLILSYAEDETDVEGTVNGVTLTSSGGSTMDSSAGSKARREAGEDEEGFLSKLKKMFTS
binds | binds | binds | hTid-1S (other, Endogenous protein from human cell lysates; also called short form of human Tid1; 40 kDa TID1 splice variant) VSLTGTKHNPFICTASFHTSAPLAKEDYYQILGVPRNASQKEIKKAYYQLAKKYHPDTNKDDPKAKEKFSQLAEAYEVLSDEVKRKQYDAYGSAGFDPGASGSQHSYWKGGPTVDPEELFRKIFGEFSSSSFGDFQTVFDQPQEYFMELTFNQAAKGVNKEFTVNIMDTCERCNGKGNEPGTKVQHCHYCGGSGMETINTGPFVMRSTCRRCGGRGSIIISPCVVCRGAGQAKQKKRVMIPVPAGVEDGQTVRMPVGKREIFITFRVQKSPVFRRDGADIHSDLFISIAQALLGGTARAQGLYETINVTIPPGTQTDQKIRMGGKGIPRINSYGYGDHYIHIKIRVPKRLTSRQQSLILSYAEDETDVEGTVNGVTLTSSGKRSTGN
